Test results reported in patent US6972178.
Results are given in words; binding and its absence hold for the method and conditions named. For part of these data: Binding seen in cells or lysates may run through a third protein. Some results given as binding are weak or reduced against the parent protein; the word gives no strength. Values belong to the substance of their own block, whether it stands above or below them.

Sequences of proteins named here, by UniProt entry; tags and fusion partners are left off. A change or cut given only in a name is not applied to a line headed by its entry.
UniProt Q04752: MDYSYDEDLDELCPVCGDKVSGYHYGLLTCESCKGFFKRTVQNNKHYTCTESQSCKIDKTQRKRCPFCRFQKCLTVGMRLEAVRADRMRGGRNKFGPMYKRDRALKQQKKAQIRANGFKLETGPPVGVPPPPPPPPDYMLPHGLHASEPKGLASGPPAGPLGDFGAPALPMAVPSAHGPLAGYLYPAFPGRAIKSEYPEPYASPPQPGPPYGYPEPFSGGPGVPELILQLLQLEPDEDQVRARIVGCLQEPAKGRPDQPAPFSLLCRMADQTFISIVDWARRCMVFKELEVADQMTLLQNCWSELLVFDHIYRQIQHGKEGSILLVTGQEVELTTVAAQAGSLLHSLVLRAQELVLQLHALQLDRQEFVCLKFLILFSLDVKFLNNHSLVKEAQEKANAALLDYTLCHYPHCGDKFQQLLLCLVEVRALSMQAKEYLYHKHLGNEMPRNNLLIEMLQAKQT
UniProt P04386: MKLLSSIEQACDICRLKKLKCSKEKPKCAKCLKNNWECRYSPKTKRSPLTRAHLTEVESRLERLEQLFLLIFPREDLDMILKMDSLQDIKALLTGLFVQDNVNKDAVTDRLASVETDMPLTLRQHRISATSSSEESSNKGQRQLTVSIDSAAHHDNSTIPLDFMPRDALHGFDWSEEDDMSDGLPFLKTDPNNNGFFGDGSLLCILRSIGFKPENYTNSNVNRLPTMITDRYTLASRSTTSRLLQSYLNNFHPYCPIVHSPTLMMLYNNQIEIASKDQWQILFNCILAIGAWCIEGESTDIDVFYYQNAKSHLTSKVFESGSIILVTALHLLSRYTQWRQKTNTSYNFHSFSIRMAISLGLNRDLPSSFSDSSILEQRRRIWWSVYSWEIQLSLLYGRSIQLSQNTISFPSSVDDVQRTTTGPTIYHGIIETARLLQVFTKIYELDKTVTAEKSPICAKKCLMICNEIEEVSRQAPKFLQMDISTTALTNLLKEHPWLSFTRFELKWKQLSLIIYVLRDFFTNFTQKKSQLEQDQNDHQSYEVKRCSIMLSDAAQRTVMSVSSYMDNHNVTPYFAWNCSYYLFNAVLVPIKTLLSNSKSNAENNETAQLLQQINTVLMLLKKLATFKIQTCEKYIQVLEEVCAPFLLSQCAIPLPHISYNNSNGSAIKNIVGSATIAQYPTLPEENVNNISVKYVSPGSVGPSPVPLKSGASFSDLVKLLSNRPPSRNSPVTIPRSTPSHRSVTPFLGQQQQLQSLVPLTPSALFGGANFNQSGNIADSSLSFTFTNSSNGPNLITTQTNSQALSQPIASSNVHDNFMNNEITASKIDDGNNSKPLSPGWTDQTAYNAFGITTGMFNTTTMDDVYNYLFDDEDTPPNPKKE
UniProt Q12796: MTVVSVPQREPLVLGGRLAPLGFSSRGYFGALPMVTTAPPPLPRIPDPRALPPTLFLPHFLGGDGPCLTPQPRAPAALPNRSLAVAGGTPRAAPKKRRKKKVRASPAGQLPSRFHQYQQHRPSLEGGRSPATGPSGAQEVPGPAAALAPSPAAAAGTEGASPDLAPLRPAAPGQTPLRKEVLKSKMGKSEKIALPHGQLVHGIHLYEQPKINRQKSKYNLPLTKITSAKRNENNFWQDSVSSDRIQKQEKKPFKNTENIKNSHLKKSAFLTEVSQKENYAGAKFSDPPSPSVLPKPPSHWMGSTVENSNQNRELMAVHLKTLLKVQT

Legend:
[1] = biological target: Wild type bovine SF1 (steroidogenic factor 1), from pSG5 vector (bovine) (UniProt Q04752); experiment: GST pull-down of in vitro translated 35S-SF1, SDS-PAGE and autoradiography
[2] = biological target: Gal4DBD-SF1 fusion protein (bovine steroidogenic factor 1, pGBT9-SF1) (bovine) (UniProt P04386+Q04752); experiment: yeast two-hybrid, β-galactosidase activity (FIG. 5B)
[3] = biological target: Gal4DBD-ERRα1 fusion protein (estrogen related receptor α-1, pGBT9-ERRα-1) (UniProt P04386); experiment: yeast two-hybrid (HIS3 and LacZ reporters), no ligand

binding [1]: binds
Substance: GST-PNRC270-327 (from UniProt Q12796 270-327)

binding [2]: binds
Substance: Gal4AD fusion of PNRC aa 270-317 (from UniProt Q12796 270-317)

binding [3]: binds
Substance: Gal4AD-PNRC fusion protein (full-length proline-rich nuclear receptor co-regulatory protein) (from UniProt Q12796 1-327)
